Tests used:
[1] = general procedure: Fmoc solid-phase peptide synthesis; 2-CTC resin 1.15 mmol/g; Fmoc-Lys(BOC)-Wang resin 0.5 mmol/g; Rink Amide MBHA resin 0.5 mmol/g; HOBt/DIC
[2] = general procedure: Fmoc solid-phase peptide synthesis; Rink Amide MBHA resin; HOBt/DIC; details: whole synthesis, scale of the general procedure 1.00 g resin
[3] = whole synthesis, scale of the general procedure 1.00 g resin

| Substance | crude purity (method not given) ([1]; late stage modification step) | crude purity (method not given) [1, 3] | other results |
| --- | --- | --- | --- |
| C18 Dicarboxylic Acid-gGlu-AEEA-AEEA-Lys(3,5 Bis[(2 bromoacetyl)amino]benzoyl)-NH2 | 50% |  |  |
| C18 Dicarboxylic Acid-gGlu-AEEA-AEEA-Lys-NH2 |  |  | crude purity (method not given) [2]: 91% |
| C18 Dicarboxylic Acid-gGlu-AEEA-AEEA-Lys(bromoacetyl)-COOH |  | 57% |  |
| C18 Dicarboxylic Acid-gGlu-AEEA-AEEA-Lys(3,5-bis[(2-bromoacetyl)amino]benzoyl)-OH | 52% |  |  |
| C18 Dicarboxylic Acid-gGlu-AEEA-AEEA-Lys(3,5-bis[(2-bromoacetyl)amino]benzoyl)-COOH | 59% |  |  |
| C20 Dicarboxylic Acid-AEEA-gGlu-gGlu-Lys(bromoacetyl)-COOH |  | 44% |  |
| C20 Dicarboxylic Acid-gGlu-AEEA-AEEA-Lys(bromoacetyl)-COOH |  | 59% |  |
